PubChem BioAssay AID1487 (National Center for Advancing Translational Sciences (NCATS), 2009)
“And” between values parts separate entries of the source, which are not always exact repeats. Identical values can stand only once. This is one part of the list. The main result of the screen is listed elsewhere. These columns were measured beside it and carry no call. The list favours compounds with an active or inconclusive main result. Potencies come from curve fits of mixed quality, noted in brackets.

Test: qHTS Assay for Modulators of Lamin A Splicing
Conditions: HeLa LMNA splicing GFP/RFP minigene ratio, 48 h
Method in brief: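 S3 HeLa stable clones carrying a lamin A-EGFP splicing minigene plus DsRed2 were seeded at 600 cells/well in Opti-MEM with 2% FBS, pin-dosed and incubated 48 h at 37°C. Acumen cytometry (488 nm) gave the GFP/RFP total-intensity ratio.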

[1] = measured here: GFP splicing reporter channel
[2] = measured here: RFP viability control channel

SMILES | AC50 [1] | AC50 [2]
CCCn1cnc2cc(NCc3cccc(OC)c3O)ccc21 | 0.00447 µM [rising, full curve, poor fit] | 3.98 µM [rising, full curve, poor fit]
O=C(O)Cc1csc(-c2ccc(F)cc2)n1 |  | 0.0631 µM [falling, full curve, poor fit]
CCOC(=O)c1c(CC(C)C)csc1NC=O | 35.5 µM [falling, single point] | 35.5 µM [falling, single point]
O=C(CSc1nnnn1Cc1ccccc1)NC1CCCCC1 | 12.6 µM [rising, partial curve, poor fit] | 
COc1ccccc1/C=C/C(=O)NC(=S)NC(C)C |  | 35.5 µM [rising, single point]
Cc1ccc(NC(=S)/N=C(\N)Nc2nc(C)c3cc(C)c(C)cc3n2)cc1C | 7.94 µM [falling, partial curve] | 
COc1cc(/C=C/CN2CCN(Cc3ccc(C)o3)C(CCO)C2)ccc1O (centres undefined) | 0.178 µM [rising, partial curve, poor fit] | 0.891 µM [rising, single point]
CNC(=S)N1CCc2cc(OC)c(OC)cc2C1COc1ccc(OC)cc1 (centres undefined) | 0.282 µM [rising, full curve, poor fit] | 
CC1(C)Cc2c(c(N3CCOCC3)nc3sc4c(NN)ncnc4c23)CS1 |  | 11.2 µM [rising, single point]
NS(=O)(=O)c1ccc(NC(=O)COC(=O)c2ccc(Cl)nc2)cc1 |  | 4.47 µM [falling, full curve]
Cc1sc2nc(C(C)Nc3ccccc3N3CCOCC3)[nH]c(=O)c2c1C (centres undefined) |  | 22.4 µM [rising, single point]
COc1ccc(C)cc1S(=O)(=O)N(CC(=O)NCc1ccc(Cl)cc1)Cc1ccccc1 |  | 10 µM [rising, single point]
OCCC1CN(Cc2ccc(Oc3ncccn3)cc2)CCN1CCc1ccccc1 (centres undefined) |  | 1.12 µM [falling, partial curve, poor fit]
Cc1nn(-c2ccccc2)c(Cl)c1C(=O)Nc1nnc(C2CCCC2)s1 |  | 12.6 µM [rising, partial curve]
CCN1C(=O)C(O)(C2COC(C)(C)CC2=O)c2cc(Br)ccc21 (centres undefined) | 8.91 µM [falling, partial curve] | 12.6 µM [falling, single point]
COc1ccc2c(c1)C1(Nc3ccccc3-c3nc4ccccc4n31)C(=O)N2C (centres undefined) | 35.5 µM [rising, single point] | 35.5 µM [rising, single point]
CC(C)(C)c1nn2cnnc2n(/N=C/c2ccccc2)c1=O |  | 2.51 µM [rising, full curve, poor fit]
Cc1ccc(S(=O)(=O)Cc2ccc(C(=O)N3CCN(c4cc(C)ccc4C)CC3)o2)cc1 |  | 35.5 µM [rising, single point]
NCCCCCCNS(=O)(=O)c1cccc2c(Cl)cccc12 | 35.5 µM [falling, single point] | 35.5 µM [falling, single point]
N#Cc1ncc(-c2ccc3c(c2)OCCOCCOCCOCCOCCO3)nc1C#N | 35.5 µM [rising, single point] | 35.5 µM [rising, single point]
COc1ccccc1-c1nnc(NC(=O)c2ccc3c(c2)OCO3)s1 | 35.5 µM [falling, single point] | 3.98 µM [rising, single point]
CC1(C)CC(=O)C2=C(C1)NC(Nc1nc3ccccc3o1)=NC2c1ccccn1 (centres undefined) |  | 31.6 µM [falling, partial curve]
COc1ccc(C)cc1NC(=O)C(CCSC)NS(=O)(=O)c1ccc2c(c1)oc(=O)n2C (centres undefined) |  | 0.0501 µM [falling, full curve, poor fit]
COc1cc2c(cc1OC)C(C)N(C(=O)c1cc3c(s1)-c1c(C)cccc1OC3)CC2 (centres undefined) | 7.94 µM [rising, partial curve] | 12.6 µM [rising, partial curve]
COc1ccccc1OCc1nc(-c2ccc([N+](=O)[O-])cc2)no1 | 12.6 µM [rising, single point] | 20 µM [rising, single point]
CCOC(=O)c1c(C)[nH]c(CCC(=O)Nc2ccc(N(CC)CC)cc2C)c1C |  | 35.5 µM [rising, partial curve, poor fit]
O=C(N=C1N=C2C=CC=CN2Cc2ccccc21)c1ccc(S(=O)(=O)N2CCOCC2)cc1 | 5.01 µM [falling, full curve, poor fit] | 8.91 µM [falling, partial curve, poor fit]
O=C(N/N=C/c1sc2ccccc2c1O)c1ccccc1 |  | 20 µM [rising, partial curve, poor fit]

SMILES | AC50 [1] | AC50 [2]
CN1CC[C@H](CN2c3ccccc3Sc3ccccc32)C1 | 0.0178 µM [falling, full curve, poor fit] | 3.16 µM [rising, partial curve, poor fit]
CCCC(=O)Nc1ccc(C(=O)Nc2cccc(OC)c2)cc1 | 5.62 µM [rising, partial curve, poor fit] | 12.6 µM [rising, single point]
O=C1C=C(c2ccccc2)OC(c2ccccc2)O1 (centres undefined) |  | 35.5 µM [falling, partial curve, poor fit]
Cc1ccc(C2C(C#N)=C(N)SC(N)=C2C#N)o1 |  | 35.5 µM [falling, single point]
Cc1ccc(NC(=O)C(Nc2cccc(C)c2)c2ccccc2)cc1 (centres undefined) |  | 17.8 µM [rising, single point]
Cc1ccc2nc(SC(Cc3cc(Cl)ccc3Cl)C(=O)O)[nH]c2c1 (centres undefined) | 39.8 µM [falling, partial curve, poor fit] | 
Cc1cc(Cl)ccc1NC(=O)C1CCN(S(=O)(=O)c2ccc3[nH]c(=O)ccc3c2)CC1 |  | 0.708 µM [falling, full curve, poor fit]
Cc1ccc(NC(=S)NCC(C)CSc2ccc(Cl)cc2)cc1 (centres undefined) |  | 35.5 µM [falling, single point]
CCN(CC)C(=O)CSc1nnc([C@H](Cc2c[nH]c3ccccc23)NC(=O)OC(C)(C)C)o1 | 11.2 µM [rising, single point] | 
O=C(CCOc1ccccc1)N(Cc1cccnc1)c1nc2c(Cl)cccc2s1 | 14.1 µM [falling, partial curve, poor fit] | 15.8 µM [falling, partial curve, poor fit]
CC(O)C(=O)O (centres undefined) | 0.708 µM [falling, partial curve] | 6.31 µM [rising, single point]
CN1CCc2cccc3c2[C@@H]1Cc1ccc(O)c(O)c1-3 |  | 35.5 µM [rising, single point]
Cc1cccc(N2CCN(C(=O)c3ccc(N4CCCC4=O)cc3)CC2)c1C |  | 25.1 µM [rising, partial curve]
Cc1nn(-c2ccccc2)c(Cl)c1/C=N/NC(=O)OC(C)(C)C |  | 8.91 µM [rising, partial curve]
CCOCCCNc1ncnc2c1[nH]c1ccccc12 | 31.6 µM [rising, single point] | 31.6 µM [rising, single point]
CCOc1ccc2nc(NCCNS(=O)(=O)c3ccccc3)c(C#N)cc2c1 |  | 25.1 µM [falling, partial curve, poor fit]
CN(C)CCOC(c1ccccc1)c1ccccc1 | 794 nM [falling, partial curve, poor fit] and 31.6 µM [falling, partial curve] | 17.8 µM [rising, partial curve, poor fit] and 35.5 µM [falling, single point]
Cc1cccc(NC(=O)c2c(C)nn(-c3ccccc3)c2Cl)c1 | 10 µM [rising, partial curve] | 
C[C@H]1C[C@@H]2[C@@H]([C@@H](O)C[C@@]3(C)[C@H]2CC[C@]3(O)C(=O)CO)[C@@]2(C)C=CC(=O)C=C12 | 8.91 µM [falling, single point] | 
COc1ccc(OC)c(NC(=O)C23CC4CC(C2)CC(n2cnc(Br)n2)(C4)C3)c1 |  | 31.6 µM [rising, single point]
Cn1c(Sc2ccc(Br)cc2)c(C=O)c2ccccc21 | 2 µM [rising, partial curve] | 17.8 µM [rising, single point]
CC(C)(C)NC(=O)CN(C(=O)C1CSC(=O)C1)c1ccccc1F (centres undefined) | 0.01 µM [falling, full curve, poor fit] | 0.00447 µM [falling, full curve]
COc1cc(OC)cc(C(=O)NNC(=O)NC2CCCCC2)c1 |  | 35.5 µM [rising, single point]
O=S(=O)(NCC(c1ccco1)N1CCN(c2ccccc2F)CC1)c1ccc2c(c1)OCCO2 (centres undefined) |  | 11.2 µM [rising, partial curve]
CC(=O)Nc1ccc(Nc2ccc3nonc3c2[N+](=O)[O-])cc1 |  | 0.0282 µM [rising, full curve, poor fit]
O=C(N/N=C/c1ccc(OCC2COCCO2)cc1)c1ccc(Br)cc1 (centres undefined) |  | 2.82 µM [rising, partial curve]
Cc1ccc2nc(N(Cc3cccnc3)C(=O)c3cccs3)sc2c1 |  | 39.8 µM [falling, partial curve, poor fit]
